Measurements published in paper PMC5383397.
Results are given in words; binding and its absence hold for the method and conditions named. In cells and extracts the contact can be indirect. Some results given as binding are weak or reduced against the parent protein; the word gives no strength.

What was measured:
[1] = target: BRASSINOSTEROID … 1 fused to the C-terminal fragment of split YFP (BRI1-cYFP) (Arabidopsis thaliana) (UniProt O22476); assay: split reporter; BiFC: nYFP and cYFP fusions (35S promoter) transiently co-expressed in epidermal leaf cells of N. benthamiana together with CFP-tagged RLCK and mRFP/mCherry-tagged receptor; reconstituted YFP imaged by confocal microscopy; steady state, no ligand added
[2] = target: … SENSING 2 fused to the C-terminal fragment of split YFP (FLS2-cYFP) (Arabidopsis thaliana) (UniProt Q9FL28); assay: as above

binding [1]: binds
binding [2]: binds
Sequence: BRASSINOSTEROID … KINASE 1 fused to the N-terminal fragment of split YFP (BSK1-nYFP) (from UniProt Q944A7 1-512) (enzyme)
